Consider two substances from PMC8022279.

Amino acid sequences for entries named in this document (tags omitted).
UniProt Q02775: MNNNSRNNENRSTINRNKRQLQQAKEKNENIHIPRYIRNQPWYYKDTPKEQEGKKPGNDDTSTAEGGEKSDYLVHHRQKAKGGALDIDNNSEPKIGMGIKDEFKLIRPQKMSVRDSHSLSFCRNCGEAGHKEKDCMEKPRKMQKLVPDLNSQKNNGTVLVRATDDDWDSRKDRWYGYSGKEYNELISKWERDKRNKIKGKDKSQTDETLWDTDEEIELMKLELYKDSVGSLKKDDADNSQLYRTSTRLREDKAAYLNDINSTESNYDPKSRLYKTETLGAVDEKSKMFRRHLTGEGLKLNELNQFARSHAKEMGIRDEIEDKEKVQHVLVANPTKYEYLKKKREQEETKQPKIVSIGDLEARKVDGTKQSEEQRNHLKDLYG

These are yes or no findings as the source states them, for the method shown. Some entries that bind do so weakly or less than the wild type.

Assay [1] addresses T1, Prp18 (S. cerevisiae (endogenous in splicing extract)) (UniProt P33411).
T1 sequence: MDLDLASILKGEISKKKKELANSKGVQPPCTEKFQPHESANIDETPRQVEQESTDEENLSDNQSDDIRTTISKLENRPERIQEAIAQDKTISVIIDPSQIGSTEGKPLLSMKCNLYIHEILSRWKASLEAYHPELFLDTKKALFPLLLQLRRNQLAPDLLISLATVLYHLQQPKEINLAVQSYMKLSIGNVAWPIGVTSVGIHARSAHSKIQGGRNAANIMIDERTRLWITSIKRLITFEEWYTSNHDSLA
Description: cryo-EM structure; endogenous S. cerevisiae C/Ci-complex spliceosomes assembled in splicing extract on UBC4 pre-mRNA and affinity purified (buffer K-75, 75 mM KCl); C-complex particles of 6 datasets merged (C and P particles merged for the Prp19 module); focused classification and focused ….

Assay [2] addresses T2, recombinant Prp18 (of the Slu7/Prp18 heterodimer) (S. cerevisiae) (UniProt P33411).
T2 sequence: T1 sequence
Description: co-purification (Ni-NTA, then gel filtration); Prp18 and Slu7 co-expressed in E. coli; Ni-NTA in buffer A250 (50mM Tris-HCl pH 7.5, 250mM NaCl), heterodimer eluting at 100 mM imidazole, then gel filtration in buffer A250. A general note: In gel filtration, larger molecules generally elute earlier.

Take Slu7 (from UniProt Q02775 1-382): the binding entry in assay [1] is given as “binds”. Regarding “recombinant Slu7 (of the Slu7/Prp18 heterodimer) (from UniProt Q02775 1-382)”, the binding result in assay [2] is “binds”.
